# Laboratory results reported in paper PMC12431657, “Discovery and mechanistic insights of dibenzoylmethane as a broad spectrum inhibitor of coronavirus” (PLOS Pathogens, 2025).
# Counter-ions that a name gives are not always drawn. Like-named read-outs stand apart in the source and are kept apart here. The campaign covered roughly 3,300 compounds. About 60 (2%) showed an effect of 50% or more. The list shows a part of the results.
# Test system: HCoV-OC43
# Set-up: species or system RD; HTS, protection from HCoV-OC43 induced cell death, luminescent cell viability (CellCounting-Lite 2.0), inhibition rate
# Conditions: 24 h post infection, 1 h compound pre-incubation, 10 µM, inhibitor
Structure (SMILES),OC43 Inhibition rate [%],"OC43 Inhibition rate (OC43 Inhibition rate, 24 h) [%]"
C[C@H](CO[C@@H]1O[C@H](CO)[C@@H](O)[C@H](O)[C@H]1O)[C@H]1CC[C@@]2(CC[C@]3(C)[C@H](CC[C@@H]4[C@@]5(C)CC[C@H](O[C@@H]6O[C@H](CO)[C@@H](O)[C@H](O)[C@H]6O[C@@H]6O[C@H](CO)[C@@H](O)[C@H](O)[C@H]6O)[C@@](C)(CO)[C@@H]5CC[C@]43C)[C@H]2O)CO1 [Hosenkoside B],7.2,
CC1(C)CCC2(CO)C(=C3C=CC4C5(C)CCC(OC6OC(COC7OC(CO)C(O)C(O)C7O)C(OC7OC(CO)C(O)C(O)C7O)C(O)C6O)CC5C(C)(CO)CC4(C)C3(C)CC2O)C1 (stereo not drawn) [Clinodiside A],0.1,
COc1cc(/C=C/C(=O)O[C@H]2[C@H](O)[C@@H](CO)O[C@@]2(CO)O[C@H]2O[C@H](COC(=O)c3ccc(O)cc3)[C@@H](O)[C@H](O)[C@H]2O)cc(OC)c1OC [Tenuifoliside A],0.3,
CC(C)[C@@H]1CC[C@@H](C)C[C@H]1O [Menthol],,-0.2
CC(C)CCC[C@@H](C)[C@H]1CC[C@H]2[C@@H]3CC=C4C[C@@H](OS(=O)(=O)O)CC[C@]4(C)[C@H]3CC[C@]12C [Cholesteryl sulfate (sodium)],4.6,
"O=C(O)c1c[nH]c(=O)[nH]c1=O [2,4-Dihydroxypyrimidine-5-carboxylic Acid]",-0.8,
N[C@@H](Cc1ccc(O)c([N+](=O)[O-])c1)C(=O)O [3-Nitro-L-tyrosine],-2.3,
COc1ccc(/C=C/c2cc(O)cc(O[C@@H]3O[C@H](CO)[C@@H](O)[C@H](O)[C@H]3O)c2)cc1O [Rhapontin],-0.2,
C=C[C@H]1[C@H](O[C@@H]2O[C@H](CO)[C@@H](O)[C@H](O)[C@H]2O)OC=C(C(=O)OC)[C@H]1CCOC(=O)c1cc(O)c(O)c(O)c1 [Cornuside],-1.6,
CCCCCCCCOC(C)=O [Octyl acetate],2.7,
O=C(O)CO [Glycolic acid],2.8,
COc1cc2c(cc1OC)C1=Cc3ccc(OC)c(OC)c3CN1CC2 [Dihydropalmatine],2.2,
CC1(C)[C@@H](O[C@H]2O[C@H](C(=O)O)[C@@H](O)[C@H](O)[C@H]2O[C@@H]2O[C@H](C(=O)O)[C@@H](O)[C@H](O)[C@H]2O)CC[C@]2(C)[C@H]3C(=O)C=C4[C@@H]5C[C@@](C)(C(=O)O)CC[C@]5(C)CC[C@@]4(C)[C@]3(C)CC[C@@H]12 [Ammonium glycyrrhizinate],,0
CC(C)[C@H](C)[C@@H](O)[C@H](O)[C@@H](C)[C@H]1CC[C@H]2[C@@H]3COC(=O)[C@H]4C[C@H](O)[C@H](O)C[C@]4(C)[C@H]3CC[C@]12C [Brassinolide],-1.2,
COc1ccc(-c2cc(=O)c3c(O)c(OC)c(OC)cc3o2)cc1 [Salvigenin],0.5,
N[C@@H](Cc1c[nH]cn1)C(=O)O [L-Histidine],,1.8
C[C@H](CC[C@@H](O[C@@H]1O[C@H](CO)[C@@H](O)[C@H](O)[C@H]1O[C@@H]1O[C@H](CO)[C@@H](O)[C@H](O)[C@H]1O)C(C)(C)O)[C@H]1CC[C@@]2(C)[C@@H]3CC=C4[C@@H](CC[C@H](O)C4(C)C)[C@]3(C)[C@H](O)C[C@]12C [Mogroside II-A],0.7,
C[C@H](CC[C@@H](O)C(C)(C)O)[C@H]1CC[C@@]2(C)[C@@H]3CC=C4[C@@H](CC[C@H](O)C4(C)C)[C@]3(C)[C@H](O)C[C@]12C [Mogrol],0.1,
C/C=C(/C)C(=O)O[C@H]1C(C)=C[C@]23C(=O)[C@@H](C=C(CO)[C@@H](O)[C@]12O)[C@H]1[C@@H](C[C@H]3C)C1(C)C [Ingenol Mebutate],1.1,
C[C@@]12C[C@@]3(O)O[C@@H](O1)[C@]1(COC(=O)c4ccc(O)cc4)[C@H]3C[C@@]12O[C@@H]1O[C@H](CO)[C@@H](O)[C@H](O)[C@H]1O [Oxypaeoniflorin],-0.1,
COc1cc2c(cc1OC)[C@@H](Cc1ccc(O)c(Oc3cc4c(cc3OC)CCN(C)[C@@H]4Cc3ccc(O)cc3)c1)N(C)CC2 [Liensinine (Diperchlorate)],,24.8
"CC(C)=CC[C@H](OC(=O)C=C(C)C)C1=CC(=O)c2c(O)ccc(O)c2C1=O [β,β-Dimethylacrylalkannin]",-0.5,
O=C(O)[C@H](O)[C@H](O)[C@@H](O)[C@H](O)[C@H](O)CO [NSC 42196],3.4,
OC/C=C/c1ccccc1 [Cinnamyl Alcohol],-0.3,
C/C=C1\C(=O)C[C@H]2[C@@H]3CCC4=CC(=O)CC[C@]4(C)[C@H]3CC[C@]12C [(Z)-Guggulsterone],,0.3
COC(=O)C1=CO[C@@H](O[C@@H]2O[C@H](CO)[C@@H](O)[C@H](O)[C@H]2O)[C@H]2[C@@H]1C=C[C@@]2(O)CO [Gardenoside],4.5,
C[C@H]1CC[C@@]2(OC1)O[C@H]1C[C@H]3[C@@H]4CC[C@@H]5C[C@@H](O)CC[C@]5(C)[C@H]4CC[C@]3(C)[C@H]1[C@@H]2C [Sarsasapogenin],-0.2,

# Laid out differently: entries from further up
Structure (SMILES) | OC43 Inhibition rate [%] | OC43 Inhibition rate (OC43 Inhibition rate, 24 h) [%]
C/C=C(/C)C(=O)O[C@H]1C(C)=C[C@]23C(=O)[C@@H](C=C(CO)[C@@H](O)[C@]12O)[C@H]1[C@@H](C[C@H]3C)C1(C)C [Ingenol Mebutate] | 1.1 | 
C[C@@]12C[C@@]3(O)O[C@@H](O1)[C@]1(COC(=O)c4ccc(O)cc4)[C@H]3C[C@@]12O[C@@H]1O[C@H](CO)[C@@H](O)[C@H](O)[C@H]1O [Oxypaeoniflorin] | -0.1 | 
